Reference: publication PMC2894861
No constants are given. Whether binding was seen depends on the method and setting. Binding seen in cells or lysates may run through a third protein. Some results given as binding are weak or reduced against the parent protein; the word gives no strength.

Amino acid sequences for entries named in this document (tags omitted). A change or cut given only in a name is not applied to a line headed by its entry.
UniProt Q12824: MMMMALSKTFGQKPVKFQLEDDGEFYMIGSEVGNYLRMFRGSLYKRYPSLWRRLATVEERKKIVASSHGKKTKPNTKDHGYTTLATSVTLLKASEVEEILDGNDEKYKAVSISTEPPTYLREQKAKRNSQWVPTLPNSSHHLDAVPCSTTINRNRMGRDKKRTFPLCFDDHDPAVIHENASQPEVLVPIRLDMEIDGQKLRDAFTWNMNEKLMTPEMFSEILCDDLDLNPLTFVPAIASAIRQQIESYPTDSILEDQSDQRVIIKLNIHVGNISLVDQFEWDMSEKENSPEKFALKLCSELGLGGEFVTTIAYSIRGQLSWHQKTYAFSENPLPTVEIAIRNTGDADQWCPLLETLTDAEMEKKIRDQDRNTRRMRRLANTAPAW
UniProt Q8TDY2: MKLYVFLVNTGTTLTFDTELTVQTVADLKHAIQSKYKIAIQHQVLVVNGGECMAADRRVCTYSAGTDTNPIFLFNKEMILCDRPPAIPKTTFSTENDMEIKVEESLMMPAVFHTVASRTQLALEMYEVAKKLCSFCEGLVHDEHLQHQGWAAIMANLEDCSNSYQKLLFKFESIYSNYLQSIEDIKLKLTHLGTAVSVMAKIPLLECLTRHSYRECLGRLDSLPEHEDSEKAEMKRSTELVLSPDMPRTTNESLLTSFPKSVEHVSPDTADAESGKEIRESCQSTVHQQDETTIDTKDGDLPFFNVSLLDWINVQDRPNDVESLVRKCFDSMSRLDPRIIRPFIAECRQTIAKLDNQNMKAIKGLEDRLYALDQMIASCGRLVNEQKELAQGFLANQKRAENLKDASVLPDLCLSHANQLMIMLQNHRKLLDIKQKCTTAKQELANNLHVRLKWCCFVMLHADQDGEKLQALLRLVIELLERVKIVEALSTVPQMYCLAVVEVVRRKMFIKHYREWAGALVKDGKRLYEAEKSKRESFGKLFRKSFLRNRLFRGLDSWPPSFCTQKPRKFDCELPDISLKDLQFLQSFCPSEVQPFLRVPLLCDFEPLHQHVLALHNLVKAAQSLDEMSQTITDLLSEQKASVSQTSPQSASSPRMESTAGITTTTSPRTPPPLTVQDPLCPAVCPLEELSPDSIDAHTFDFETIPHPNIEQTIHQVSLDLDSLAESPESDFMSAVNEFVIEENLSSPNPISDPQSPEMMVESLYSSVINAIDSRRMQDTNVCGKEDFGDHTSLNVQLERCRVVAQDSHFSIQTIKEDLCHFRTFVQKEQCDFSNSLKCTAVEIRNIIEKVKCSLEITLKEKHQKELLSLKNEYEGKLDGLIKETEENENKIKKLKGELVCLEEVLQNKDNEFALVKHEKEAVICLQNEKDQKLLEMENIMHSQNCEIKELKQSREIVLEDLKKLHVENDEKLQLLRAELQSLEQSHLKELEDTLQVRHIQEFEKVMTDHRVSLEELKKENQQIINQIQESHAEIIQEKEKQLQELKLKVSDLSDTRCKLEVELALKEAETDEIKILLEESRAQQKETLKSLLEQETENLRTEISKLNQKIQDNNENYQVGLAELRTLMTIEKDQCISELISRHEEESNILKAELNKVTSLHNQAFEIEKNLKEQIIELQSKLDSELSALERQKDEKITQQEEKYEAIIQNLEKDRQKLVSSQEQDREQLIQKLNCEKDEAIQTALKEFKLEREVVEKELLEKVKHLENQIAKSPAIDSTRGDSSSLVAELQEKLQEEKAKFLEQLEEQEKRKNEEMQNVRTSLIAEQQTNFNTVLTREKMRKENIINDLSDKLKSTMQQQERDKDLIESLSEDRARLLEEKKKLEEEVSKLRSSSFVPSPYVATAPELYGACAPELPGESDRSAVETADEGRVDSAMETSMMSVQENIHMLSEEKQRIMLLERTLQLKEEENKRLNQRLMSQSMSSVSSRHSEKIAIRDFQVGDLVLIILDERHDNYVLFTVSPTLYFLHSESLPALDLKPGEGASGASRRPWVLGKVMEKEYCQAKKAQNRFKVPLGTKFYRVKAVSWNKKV

How the values were obtained:
[1] = molecular target: HA-tagged hSNF5 wildtype (full) (UniProt Q12824); experiment: co-IP; Flag-RB1CC1 (wt or mutants) and HA-hSNF5 co-transfected into HEK293; lysates in TNE buffer, anti-Flag or anti-HA immobilized beads, 2 h at 4°C; immunoblot (called pull-down assay by the paper)
[2] = molecular target: RB1-inducible coiled-coil 1 (RB1CC1), endogenous in MCF-7 cells (human (endogenous in MCF-7)) (UniProt Q8TDY2); experiment: co-IP; MCF-7 lysate in NP-40 lysis buffer, immunoprecipitated with two kinds of anti-RB1CC1 rabbit polyclonal IgGs or normal control rabbit IgGs at 4°C overnight, protein-G beads; immunoblot

| Substance | binding [1] | binding [2] |
| --- | --- | --- |
| Flag-tagged wildtype RB1CC1 (from UniProt Q8TDY2-1 1-1594) | binds | – |
| hSNF5, endogenous in MCF-7 cells (from UniProt Q12824 1-385) | – | binds |
